Positions count from the first letter of the chain named. These are yes or no findings as the source states them, for the method shown. Some binding calls cover weakened binding; strength is not graded here. Each block holds one binder with its values, some of them ahead of it.
Tests used:
[1] = target: recombinant human SLPI (Secretory leukocyte protease inhibitor), R&D Systems Cat#260-PI (human) (UniProt P03973); test: SLPI-specific hemolytic plaque assay on SLPI-coated SRBCs
[2] = target: recombinant human SLPI (Secretory leukocyte protease inhibitor), R&D Systems Cat#260-PI (human) (UniProt P03973); test: ELISA rescreen on SLPI

Sequences of proteins named here, by UniProt entry; tags and fusion partners are left off. A change or cut given only in a name is not applied to a line headed by its entry.
UniProt P03973: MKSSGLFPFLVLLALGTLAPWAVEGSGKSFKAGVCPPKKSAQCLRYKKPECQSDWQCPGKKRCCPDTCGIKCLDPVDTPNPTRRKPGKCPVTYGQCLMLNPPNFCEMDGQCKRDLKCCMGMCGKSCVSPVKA

binding [2]: binds
B1: 43H7 (antibody, human IgG2, V domains shown)
VH: QVQLVESGGGVVQPGRSLRLSCAASGFTFSTYGMHWVRQAPGKGLEWVTFIWYDGRNKYYADSVKGRFTVSRDNSKNTLYLQMNSLRAEDTAVYYCARGDDYGDYHPHYYYYGLDVWGQGTTVTVSS
VL: DIVMTQTPLSLSVTPGQPASISCKSSQSLLDSDGKTYLYWYLQKPGQPPQLLIYEVSNRFSGVPDRFSGSGSGTDFTLKISRVEAEDVAYYYCMQSIQLPWTFGQGTKVEIK
binding [1]: binds

binding [2]: binds
B2: 9G12 (antibody, human IgG2, V domains shown)
VH: B1 VH with T31G, T49A, D54N, R56N, N57D, K58N, A61T, V70I, L114M
VL: B1 VL with V88I, A89G, Y90V, M94L
binding [1]: binds

— patent US20050142137A1
